These results are taken from PubChem BioAssay AID1508600 (Functional Genomics Laboratory (NCATS/FGL), 2020).

Hit rate of the full screen: of about 53,000 sequences, about 3,700 (7%) were called active.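 The calls were made as follows: active = gene knockdowns whose robust z-score for IL-1 alpha signal is at least 2 or at most -2, so actives lie on both sides; inactive = the rest.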 This is one part of the list.

The test is described as follows: Components of the Cytosolic LPS Sensing Pathway: Gene Identification via Genome-wide siRNA Screen.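 Also: robust z of the log signal after scaling to non-targeting control siRNA wells of the plate.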 Particulars: RAW264.7 macrophages, IL-1a HTRF, actives lie on both sides, screened at 100 nM (by protocol), cells primed 5 h with Pam3CSK4 first. An outline of the steps: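 Cells (RAW264.7, 1×10^4 per well) were transfected with siRNA at 100 nM and cultured 48h at 37 degrees C. Pam3CSK4 was added for 5 hours; LipidA transfection followed for 24 hour. IL-1a was then measured by HTRF.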
For GGAUUUCUGACCAUUGAGCTT against Mrgprf, the z-score was inactive: -1.2. As to GGUGAGGAACUUCUGGAAUTT against Klra5, the z-score is inactive: 0.32. With GGACAUCAUUCAUGACCCUTT against Rpl8 the figure was inactive: -0.0737; with GGAGUUGGUACCUUUCCGATT against Thap4, inactive: -0.975; with GCUCACUAUGUAAAGAGAATT against Itpk1, inactive: 0.807. GGCUUUAAUCCUAACCCUATT against Zfp3: the z-score was inactive: -0.658. On to CCUUGAGAUUUUUAUAAGCTT against Stx5a, for which the z-score was inactive: -0.0288. On to CCAGUCACUGACAAUAAGATT against Kcnj1, for which the z-score was inactive: 0.202.

On to CGACUAUAUGCAGAAGUACTT against Cdc27, for which the z-score is inactive: 1.07.

For the sequence CGGAGGAAGGCAAGAUGUATT against Tead4, the z-score is inactive: 0.348. Then GGAGACCAAAAAGAAAUAATT against Cmas, with inactive: 0.622; and GGUAGAGCUGCACUUUGGATT against Hddc3, with inactive: -1.43. With CGAGCUUUCACUGCUACAGTT against Ppargc1b, the z-score is inactive: -1.35. Take GCAAGAAGUAUUUUCAGUATT against Galnt4: the z-score is inactive: 1.34.

Take GUGCUACUGCCUGCCAUUCTT against Lce1b: the z-score was inactive: 0.397. GGAAACAGAGCAAGGAAAATT against Gas7: the z-score was inactive: 0.613. Consider “GGUAAUUUAAUGACACAUGTT against A130079P16Rik”, for which the z-score was active: 2.35.

Consider GGAAAUUUCAUGAACCCUCTT against Aadat, for which the z-score is inactive: 1.36. With GGAAUUAAAUGCCAGUACGTT against Ankfy1 the figure was inactive: 1.84; with CCAUCCAAUAAGGUAAACATT against Neil3, inactive: 1.68; with GCUGAACAAUCGCUCAGUATT against N6amt1, inactive: -0.481.

With GCGCAAACAACACAUCGUCTT against Ccpg1, the z-score is inactive: 0.503. For GCAGGUGAAAUAAAGAAGGTT against Usp45, the z-score was inactive: 0.0186. Take GCCUUGGCAUUAUAUAUGGTT against Prom1: the z-score was inactive: -1.26. Consider GGCUAAAGGAGAACAACAUTT against Bub3, for which the z-score is inactive: 0.748. Take GGACCAAGCCACCAAAACUTT against Vmn1r78: the z-score was active: -2.28. Consider GCUUCCUCAAUUACUAUGCTT against Apbb2, for which the z-score was inactive: 0.874. Then GCAUUGGCAUGAUGGACCATT against Slc39a1, with inactive: 0.851; and GACAAAACAAUUACCUACATT against Olfr806, with inactive: -0.579; and GCGAAAUUCGAGUUCGGUUTT against Col17a1, with inactive: 0.0214. Then GGAUUUCACUUGAGAAUGATT against Grem1, with inactive: -0.905; and GGACAUUCCCAAAGAAAAUTT against Usp29, with inactive: -0.575. Then GGAAGUUUGUUUGCUGUUATT against Slx4ip, with inactive: 1.08. As for GCAGAGUGACUUUGAAGCGTT against Klf10, the z-score was inactive: 0.844. GGUCGCUAUUAAGAUCAUUTT against Mark4: the z-score is inactive: 0.491. GGUAGAAUGAUGUUCAAACTT against Polr2d: the z-score was inactive: -1.41. Turning to GGACAACUUUGAGGAGAUGTT against Tubg2, the z-score is active: 3.23. As for GGAGAUUGCACACUUCCAGTT against Nup214, the z-score was inactive: 0.873.

Turning to GGAACAAUCACACAAGCUGTT against Gsx2, the z-score was inactive: 0.0722. Turning to “CUGGUUUUUAGUCUUUCAUTT against 4930471G03Rik”, the z-score is inactive: 0.357. GGCUCCUCUCCAAGAAUAUTT against Prr14l: the z-score is active: 2.03.

With GGAUUGUGGUUGAACACAUTT against Tmem33, the z-score is inactive: 0.701. For the sequence GGGUAUGGUGACAGAUAAATT against Cpz, the z-score was inactive: 0.372. On to GGUGAUGGUAACUCAACGATT against Edc4, for which the z-score is inactive: -0.154. With GGUUUUCAAAGAUCUCUAGTT against Efnb2, the z-score was inactive: 0.869. Regarding GGCAUGAUCAUAAUUGGAUTT against Mto1, the z-score is inactive: -0.179. As for CCAAUUUAUACUUAGUGCCTT against Cand2, the z-score is inactive: -0.86. Then “CCUGGGUUGGAUAAAACUUTT against 6030458C11Rik”, with inactive: -0.0611; and GGAGAUGCCCAAUGUUUUCTT against Ehd1, with inactive: 0.82; and GGGAAUCGAGAAAAUGGAUTT against Prkg2, with inactive: -0.548. For GCUAGGAAUGCUGAACACUTT against Sh3gl3, the z-score is inactive: 0.456. Then CGGUUGAAGAUUGAUUUUGTT against Gnai3, with inactive: -0.266; and GGAUAACAACGACAUUUCATT against Col6a1, with inactive: 1.8. With GGUUUUGGACCAGAUGAGCTT against Abi3, the z-score is inactive: 0.0276. As to GGUAAAGGGUUCUUGGACATT against Eps15l1, the z-score is inactive: -0.156. With CCUGUAUGGGCAUGAGUUUTT against Ttc8 the figure was inactive: 0.508; with GGUGUAAGAGCUUUGGCCUTT against Gm5420, active: 2.35. GCUACAAUGACGCAGAGACTT against Kif5a: the z-score was inactive: -1.21. For the sequence GAAACGGCAGAUUGCUGCUTT against Vmn2r122, the z-score was inactive: 0.885. For CCAAAAGCAUAUCAGUCGGTT against Olfr1122, the z-score is inactive: 1.48. With GAGAUGGAGCCUGGAAACUTT against Olfr480 the figure was inactive: -1.51; with GGCUCAAGGCUGAGUUUCATT against En2, inactive: 0.704; with GCAAGGAUUACCUAUAGGATT against Rbm12b1, inactive: 0.638. Then CCUAAUCAACAACUUGGAGTT against Ugcg, with inactive: 0.217; and GCAAGUGAUGAACCAGUUCTT against Morc2a, with inactive: 0.551. In the case of GGUGAUCUGAUAGUCAGAUTT against Mtmr10, the z-score was inactive: 0.724.

With GGAAAAGAUCAACCAUUAUTT against Ccdc54, the z-score is inactive: -0.642.

As for GGGCUACUUCCUGACUAAATT against Ube2s, the z-score was inactive: -0.505. In the case of GGAGAUCCGUUCAAGGGUUTT against Olfr557, the z-score was inactive: 0.73.

As to “GCCGGAUUGAGAUCUCUAUTT against 1500015L24Rik”, the z-score is inactive: 0.734.

Regarding GGACGAAUGAGCAUAGCCUTT against Etl4, the z-score was inactive: 1.96.

Take GGACAAGAAAAAGAAACGATT against Nkap: the z-score is inactive: -0.282. For the sequence GGCAGCUUUUUACACUAGUTT against Vmn1r23, the z-score is inactive: -0.345. GAUACAUCAACACACUGACTT against Ppy: the z-score is inactive: 0.217. For the sequence GGUCAUUCACAAGUCCUUUTT against Serpinb6b, the z-score was inactive: 0.863. Take CCGCUUGGCUAGCUUUAUATT against Dzip1: the z-score was inactive: 0.269. As to GCUAUCGAAGGAAUAAUACTT against Rnf115, the z-score was inactive: -0.434. As to GGCAGUUAGACUGGUGUACTT against Foxa3, the z-score is inactive: 1.3. Regarding GGUAGUUUAAAAUCUGUGATT against St6gal1, the z-score was inactive: -0.556. Consider GGGCCGAAAUGAAUGAACUTT against Inhba, for which the z-score was inactive: 0.618. For the sequence GGUUAAACUGUGAAUCCAUTT against Setx, the z-score was inactive: 1.13. Consider CGAGCGAUUCCCAUACAAUTT against Cyp2c23, for which the z-score was inactive: 0.0396. With GGCUUAGUAAGUGCAAAUATT against Eef1akmt2 the figure was inactive: 0.237; with GGUGCAGCCACGAAAACAUTT against Lmln, inactive: -0.921; with “GGAAGAGACACUUUGUCUATT against 4930519G04Rik”, inactive: -0.389. On to GGUCCAGAUAGACAUCCUGTT against Ralb, for which the z-score is inactive: 0.169. Turning to CCUAUAAAGCAGCAACUGCTT against Parm1, the z-score is inactive: -0.924. On to “GCUUGUGGUAAAUGAGGAGTT against 1700024G13Rik”, for which the z-score is inactive: 1.4. As for CGGGAUAGACUAUAAGACUTT against Rab40c, the z-score was inactive: 0.612. For the sequence GGGCUAAAGCCUUCAACACTT against Olfr923, the z-score was inactive: 0.315. On to GGGAAUCUCUGUAUGUUGUTT against Letm1, for which the z-score was inactive: 0.617. For the sequence GGAUGAUUCAUUCAGUGAUTT against Adcy9, the z-score was inactive: 0.918. With GGAUAAGGUAGAAUUACUGTT against Slc26a4 the figure was active: 3.06; with CGACUAGAGUUGUGUGAUATT against Uqcrh, inactive: 0.834; with GGGACAGAUACAGUUCAUGTT against Zan, inactive: -0.114.

In the case of GUCAAGAAUAUUAUGACCCTT against Vamp8, the z-score was inactive: 0.516. Consider GCAAUCACUCUGCAGUGUCTT against Olfr1042, for which the z-score was inactive: -0.0202.

For GCCCUUUUACGGCAACAGATT against C2cd5, the z-score was inactive: -1.48. For the sequence GGAAAUGCCACCAAAGAACTT against Slc38a11, the z-score was inactive: -0.168. “GCAAACAUACGAUGUGAGGTT against 1700019N19Rik”: the z-score was inactive: -1.92. In the case of CCUUUCAUACCUUAGGUUATT against Slc25a44, the z-score was inactive: -0.42. On to GGCCUUAAAAGGAAAACUATT against Sftpd, for which the z-score was inactive: 0.377. With GCUAAUAGUCAUUAAACUGTT against Zfp2, the z-score was inactive: 1.76. In the case of GGACAAGUACAGGUUCCUATT against Vrk3, the z-score was inactive: 0.536. On to GGAUUUCGACAGCAAACUCTT against Efhd2, for which the z-score was inactive: 0.769. GGUCACUAAAUCCUGUACATT against Vmn1r29: the z-score was inactive: 0.226.
